No constants are given. Whether binding was seen depends on the method and setting. Binding seen in cells or lysates may run through a third protein. Some entries that bind do so weakly or less than the wild type. For part of these data: Where a sequence is shown, tags or fusion partners need not be part of it. One block for each binder: values may come before it.
Experiments:
[1] = target: rpoC (E. coli K12 (endogenous in the lysate)) (UniProt P0A8T7); test: cross-linking; sulfo-SDA (50-1000 µM, 2 h on ice, UV 365 nm) on the TEV eluates of the YacL-SPA, RpoB-SPA and NusG-SPA enrichments; LC-MS; 2% residue pair FDR, 5% PPI FDR
[2] = target: rpoC (E. coli K12 (endogenous in the lysate)) (UniProt P0A8T7); test: cross-linking; BS3 or DSSO (0.75 mM, 2 h on ice) in the single SEC fractions of E. coli K12 lysate, fractions pooled, LC-MS; PPIs at 1% heteromeric PPI-FDR
[3] = target: rpoB (E. coli K12 (endogenous in the lysate)) (UniProt P0A8V2); test: as above
[4] = target: T1, DegQ (E. coli K12 (endogenous in the lysate)) (UniProt P39099); test: as above
T1 sequence: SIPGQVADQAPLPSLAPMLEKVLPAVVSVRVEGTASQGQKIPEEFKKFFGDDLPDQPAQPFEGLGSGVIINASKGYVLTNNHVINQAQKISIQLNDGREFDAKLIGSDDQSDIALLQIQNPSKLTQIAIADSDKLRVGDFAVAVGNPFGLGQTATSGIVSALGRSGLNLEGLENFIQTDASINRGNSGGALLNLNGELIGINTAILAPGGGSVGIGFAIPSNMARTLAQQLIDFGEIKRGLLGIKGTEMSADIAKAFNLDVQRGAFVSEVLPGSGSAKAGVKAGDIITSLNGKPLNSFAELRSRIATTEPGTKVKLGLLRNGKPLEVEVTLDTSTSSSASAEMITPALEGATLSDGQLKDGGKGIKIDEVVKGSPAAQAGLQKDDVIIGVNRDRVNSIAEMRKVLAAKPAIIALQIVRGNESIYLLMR

The chains behind the UniProt entries cited, without tags or fusion partners.
UniProt P0A8T7: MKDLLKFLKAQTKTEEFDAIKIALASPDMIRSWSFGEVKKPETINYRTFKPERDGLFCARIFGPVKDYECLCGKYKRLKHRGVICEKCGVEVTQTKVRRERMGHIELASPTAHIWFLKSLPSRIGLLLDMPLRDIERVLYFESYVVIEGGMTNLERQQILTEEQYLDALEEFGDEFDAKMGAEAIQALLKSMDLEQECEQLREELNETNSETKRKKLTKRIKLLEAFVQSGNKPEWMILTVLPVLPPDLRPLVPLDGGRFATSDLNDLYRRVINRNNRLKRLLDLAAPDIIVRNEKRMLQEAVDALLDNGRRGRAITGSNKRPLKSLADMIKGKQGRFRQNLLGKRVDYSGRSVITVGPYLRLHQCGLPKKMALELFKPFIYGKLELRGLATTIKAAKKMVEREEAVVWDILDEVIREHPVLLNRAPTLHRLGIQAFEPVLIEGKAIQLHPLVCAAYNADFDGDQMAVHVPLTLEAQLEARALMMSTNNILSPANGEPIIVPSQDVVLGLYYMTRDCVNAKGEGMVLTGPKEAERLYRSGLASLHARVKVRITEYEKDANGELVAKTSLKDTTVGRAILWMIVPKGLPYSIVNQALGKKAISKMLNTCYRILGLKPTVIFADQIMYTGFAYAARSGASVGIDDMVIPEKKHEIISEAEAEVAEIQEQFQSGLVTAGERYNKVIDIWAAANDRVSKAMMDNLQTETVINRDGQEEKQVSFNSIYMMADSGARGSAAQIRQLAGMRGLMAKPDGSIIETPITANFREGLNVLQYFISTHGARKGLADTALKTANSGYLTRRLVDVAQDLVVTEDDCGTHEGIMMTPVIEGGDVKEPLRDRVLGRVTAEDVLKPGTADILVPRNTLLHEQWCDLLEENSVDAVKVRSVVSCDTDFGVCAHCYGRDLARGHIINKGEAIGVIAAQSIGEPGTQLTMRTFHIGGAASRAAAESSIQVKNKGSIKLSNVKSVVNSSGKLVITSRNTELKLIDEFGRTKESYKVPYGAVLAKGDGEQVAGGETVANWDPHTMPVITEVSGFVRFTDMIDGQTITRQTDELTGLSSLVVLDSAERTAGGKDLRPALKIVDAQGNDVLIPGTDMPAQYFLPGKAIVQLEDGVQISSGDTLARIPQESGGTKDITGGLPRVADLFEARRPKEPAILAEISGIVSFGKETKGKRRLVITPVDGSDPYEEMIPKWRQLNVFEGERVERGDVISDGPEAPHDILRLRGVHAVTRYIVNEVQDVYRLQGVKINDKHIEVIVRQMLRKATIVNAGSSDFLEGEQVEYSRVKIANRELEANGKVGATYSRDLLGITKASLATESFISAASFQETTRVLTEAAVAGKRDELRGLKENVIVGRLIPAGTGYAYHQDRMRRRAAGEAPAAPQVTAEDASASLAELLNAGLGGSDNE
UniProt P0A8V2: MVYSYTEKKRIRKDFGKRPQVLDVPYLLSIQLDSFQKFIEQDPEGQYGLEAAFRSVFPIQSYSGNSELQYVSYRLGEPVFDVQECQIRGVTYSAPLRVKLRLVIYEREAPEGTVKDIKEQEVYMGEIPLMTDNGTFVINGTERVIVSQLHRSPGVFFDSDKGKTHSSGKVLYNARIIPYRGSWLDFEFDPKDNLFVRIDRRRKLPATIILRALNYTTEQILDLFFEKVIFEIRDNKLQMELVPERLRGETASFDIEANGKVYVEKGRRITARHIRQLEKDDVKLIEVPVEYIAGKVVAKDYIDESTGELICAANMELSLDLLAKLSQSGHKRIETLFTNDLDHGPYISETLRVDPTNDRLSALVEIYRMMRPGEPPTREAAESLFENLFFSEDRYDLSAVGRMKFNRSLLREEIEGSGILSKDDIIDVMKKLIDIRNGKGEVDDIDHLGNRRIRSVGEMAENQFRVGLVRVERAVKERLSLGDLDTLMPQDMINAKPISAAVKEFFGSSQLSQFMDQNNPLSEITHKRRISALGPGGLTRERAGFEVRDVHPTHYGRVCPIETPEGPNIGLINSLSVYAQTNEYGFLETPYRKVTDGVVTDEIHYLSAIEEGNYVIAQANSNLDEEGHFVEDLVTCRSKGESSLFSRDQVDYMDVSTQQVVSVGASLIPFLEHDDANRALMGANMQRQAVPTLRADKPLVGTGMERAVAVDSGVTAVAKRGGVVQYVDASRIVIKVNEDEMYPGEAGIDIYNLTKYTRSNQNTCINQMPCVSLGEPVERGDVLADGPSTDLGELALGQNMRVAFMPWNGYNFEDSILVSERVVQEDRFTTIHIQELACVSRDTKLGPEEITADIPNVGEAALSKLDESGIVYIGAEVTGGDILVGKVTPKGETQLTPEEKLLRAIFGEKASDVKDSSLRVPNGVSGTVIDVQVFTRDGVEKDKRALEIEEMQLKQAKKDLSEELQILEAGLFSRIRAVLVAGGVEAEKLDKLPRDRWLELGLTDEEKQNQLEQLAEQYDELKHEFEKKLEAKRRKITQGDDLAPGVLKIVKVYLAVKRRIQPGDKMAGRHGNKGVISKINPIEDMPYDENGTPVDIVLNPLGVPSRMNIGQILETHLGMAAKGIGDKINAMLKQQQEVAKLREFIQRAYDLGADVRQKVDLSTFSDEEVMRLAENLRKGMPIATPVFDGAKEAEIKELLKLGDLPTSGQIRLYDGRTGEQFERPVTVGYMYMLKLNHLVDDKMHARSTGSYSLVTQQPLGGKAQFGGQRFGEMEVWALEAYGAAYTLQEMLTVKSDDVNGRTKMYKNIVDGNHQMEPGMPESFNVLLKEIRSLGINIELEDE
UniProt P0AFG0: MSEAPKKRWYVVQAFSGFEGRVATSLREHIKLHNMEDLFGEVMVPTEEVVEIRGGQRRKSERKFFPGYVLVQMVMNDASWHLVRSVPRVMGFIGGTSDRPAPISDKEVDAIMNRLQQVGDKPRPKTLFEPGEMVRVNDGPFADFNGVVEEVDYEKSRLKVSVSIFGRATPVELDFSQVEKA
UniProt P0A7Z4: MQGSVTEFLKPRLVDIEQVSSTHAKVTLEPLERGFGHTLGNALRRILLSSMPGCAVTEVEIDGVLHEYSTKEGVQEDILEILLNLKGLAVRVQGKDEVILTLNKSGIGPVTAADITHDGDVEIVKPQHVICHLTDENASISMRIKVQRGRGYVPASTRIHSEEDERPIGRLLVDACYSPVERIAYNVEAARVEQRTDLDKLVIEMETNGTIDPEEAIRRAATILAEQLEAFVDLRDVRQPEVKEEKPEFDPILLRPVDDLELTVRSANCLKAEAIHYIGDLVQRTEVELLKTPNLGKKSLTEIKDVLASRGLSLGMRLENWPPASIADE

[5] = target: T2, DegP (E. coli K12 (endogenous in the lysate)) (UniProt P0C0V0); test: as above
T2 sequence: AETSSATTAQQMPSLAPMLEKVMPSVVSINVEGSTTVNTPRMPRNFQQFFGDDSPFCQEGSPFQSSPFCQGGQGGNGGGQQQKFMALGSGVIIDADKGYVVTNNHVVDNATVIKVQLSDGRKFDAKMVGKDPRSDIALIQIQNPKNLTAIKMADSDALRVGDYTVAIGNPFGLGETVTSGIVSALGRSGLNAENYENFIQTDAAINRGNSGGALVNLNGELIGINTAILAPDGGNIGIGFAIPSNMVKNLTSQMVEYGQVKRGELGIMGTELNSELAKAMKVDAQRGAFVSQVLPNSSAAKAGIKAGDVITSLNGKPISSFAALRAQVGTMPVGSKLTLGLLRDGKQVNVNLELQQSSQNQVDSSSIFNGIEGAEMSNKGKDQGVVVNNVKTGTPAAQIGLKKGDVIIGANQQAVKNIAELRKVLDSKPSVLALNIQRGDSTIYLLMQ

[6] = target: rpoB (E. coli K12 (endogenous in the lysate)) (UniProt P0A8V2); test: cross-linking; sulfo-SDA (50-1000 µM, 2 h on ice, UV 365 nm) on the TEV eluates of the YacL-SPA, RpoB-SPA and NusG-SPA enrichments; LC-MS; 2% residue pair FDR, 5% PPI FDR
[7] = target: RpoB-SPA (E. coli K12) (UniProt P0A8V2); test: as above
[8] = target: beta' subunit of RNAP (E. coli K12 (endogenous in BW25113)) (UniProt P0A8T7); test: cross-linking; BS3 or DSSO (0.75 mM, 2 h on ice) in each of 44 SEC fractions of E. coli K12 BW25113 lysate, fractions pooled, digested, SCX and hSAX fractionation, LC-MS; PPIs at 1% heteromeric decoy-based PPI-FDR
[9] = target: beta subunit of RNAP (E. coli K12 (endogenous in BW25113)) (UniProt P0A8V2); test: as above
[10] = target: NusG (E. coli K12 (endogenous in BW25113)) (UniProt P0AFG0); test: as above
[11] = target: SPA-tagged NusG (E. coli K12) (UniProt P0AFG0); test: cross-linking; TEV eluates of the SPA-tag pull-downs (YacL, NusG, RpoB) crosslinked with sulfo-SDA (50-1000 µM, 2 h on ice in the dark, UV 365 nm 15 s), LC-MS; 2% residue pair-level FDR and 5% PPI-level FDR
[12] = target: SPA-tagged RpoB (E. coli K12) (UniProt P0A8V2); test: as above
[13] = target: NusG (E. coli K12 (endogenous in BW25113)) (UniProt P0AFG0); test: as above
[14] = target: rpoA (E. coli K12 (endogenous in the lysate)) (UniProt P0A7Z4); test: cross-linking; sulfo-SDA (50-1000 µM, 2 h on ice, UV 365 nm) on the TEV eluates of the YacL-SPA, RpoB-SPA and NusG-SPA enrichments; LC-MS; 2% residue pair FDR, 5% PPI FDR
[15] = target: T3, sucA (E. coli K12 (endogenous in the lysate)) (UniProt P0AFG3); test: cross-linking; BS3 or DSSO (0.75 mM, 2 h on ice) in the single SEC fractions of E. coli K12 lysate, fractions pooled, LC-MS; PPIs at 1% heteromeric PPI-FDR
T3 sequence: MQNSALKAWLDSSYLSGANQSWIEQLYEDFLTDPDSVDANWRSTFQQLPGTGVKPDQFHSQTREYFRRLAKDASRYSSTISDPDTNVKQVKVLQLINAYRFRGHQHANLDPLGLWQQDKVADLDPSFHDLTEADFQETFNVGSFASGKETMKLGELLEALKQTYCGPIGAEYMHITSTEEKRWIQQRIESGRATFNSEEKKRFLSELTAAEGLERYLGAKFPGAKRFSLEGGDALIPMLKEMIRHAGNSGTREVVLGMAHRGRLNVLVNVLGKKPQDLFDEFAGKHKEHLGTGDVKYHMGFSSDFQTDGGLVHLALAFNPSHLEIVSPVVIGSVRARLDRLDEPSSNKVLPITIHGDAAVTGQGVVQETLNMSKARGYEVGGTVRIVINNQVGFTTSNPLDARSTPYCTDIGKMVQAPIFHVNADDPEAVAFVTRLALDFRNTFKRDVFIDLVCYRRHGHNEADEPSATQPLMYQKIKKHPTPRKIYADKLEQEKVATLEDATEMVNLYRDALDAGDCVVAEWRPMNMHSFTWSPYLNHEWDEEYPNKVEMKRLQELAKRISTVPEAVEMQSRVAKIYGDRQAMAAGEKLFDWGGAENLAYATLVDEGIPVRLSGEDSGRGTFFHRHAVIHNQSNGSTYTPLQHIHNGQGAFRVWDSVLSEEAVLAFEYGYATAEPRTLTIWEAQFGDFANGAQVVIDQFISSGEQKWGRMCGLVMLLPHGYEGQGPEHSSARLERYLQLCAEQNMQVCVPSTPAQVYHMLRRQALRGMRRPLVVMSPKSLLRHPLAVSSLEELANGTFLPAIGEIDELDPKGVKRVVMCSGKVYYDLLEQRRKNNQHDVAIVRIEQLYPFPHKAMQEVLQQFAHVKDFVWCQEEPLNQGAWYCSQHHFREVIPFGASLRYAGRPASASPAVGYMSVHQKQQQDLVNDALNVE

- binding [1]: binds
- binding [2]: binds
- binding [3]: binds
B1: GreB (protein, UniProt P30128 1-158)
chain: MKTPLVTREGYEKLKQELNYLWREERPEVTKKVTWAASLGDRSENADYQYNKKRLREIDRRVRYLTKCLENLKIVDYSPQQEGKVFFGAWVEIENDDGVTHRFRIVGYDEIFGRKDYISIDSPMARALLKKEVGDLAVVNTPAGEASWYVNAIEYVKP

- binding [4]: binds
- binding [5]: binds
B2: panD (protein, UniProt P0A790 1-126)
chain: MIRTMLQGKLHRVKVTHADLHYEGSCAIDQDFLDAAGILENEAIDIWNVTNGKRFSTYAIAAERGSRIISVNGAAAHCASVGDIVIIASFVTMPDEEARTWRPNVAYFEGDNEMKRTAKAIPVQVA

- binding [6]: binds
- binding [7]: binds
- binding [8]: binds
- binding [9]: binds
- binding [10]: binds
- binding [11]: binds
- binding [12]: binds
B3: YacL (protein, UniProt P0A8E5 1-120)
chain: MDYEFLRDITGVVKVRMSMGHEVVGHWFNEEVKENLALLDEVEQAAHALKGSERSWQRAGHEYTLWMDGEEVMVRANQLEFAGDEMEEGMNYYDEESLSLCGVEDFLQVVAAYRNFVQQK

- binding [13]: binds
B4: SPA-tagged YacL (protein, UniProt P0A8E5 1-120)
chain: MDYEFLRDITGVVKVRMSMGHEVVGHWFNEEVKENLALLDEVEQAAHALKGSERSWQRAGHEYTLWMDGEEVMVRANQLEFAGDEMEEGMNYYDEESLSLCGVEDFLQVVAAYRNFVLQK

- binding [14]: binds
B5: nuoF (protein, UniProt P31979 1-445)
chain: MKNIIRTPETHPLTWRLRDDKQPVWLDEYRSKNGYEGARKALTGLSPDEIVNQVKDAGLKGRGGAGFSTGLKWSLMPKDESMNIRYLLCNADEMEPGTYKDRLLMEQLPHLLVEGMLISAFALKAYRGYIFLRGEYIEAAVNLRRAIAEATEAGLLGKNIMGTGFDFELFVHTGAGRYICGEETALINSLEGRRANPRSKPPFPATSGAWGKPTCVNNVETLCNVPAILANGVEWYQNISKSKDAGTKLMGFSGRVKNPGLWELPFGTTAREILEDYAGGMRDGLKFKAWQPGGAGTDFLTEAHLDLPMEFESIGKAGSRLGTALAMAVDHEINMVSLVRNLEEFFARESCGWCTPCRDGLPWSVKILRALERGEGQPGDIETLEQLCRFLGPGKTFCAHAPGAVEPLQSAIKYFREEFEAGIKQPFSNTHLINGIQPNLLKERW

- binding [15]: binds
B6: sucB (protein, UniProt P0AFG6 1-405)
chain: MSSVDILVPDLPESVADATVATWHKKPGDAVVRDEVLVEIETDKVVLEVPASADGILDAVLEDEGTTVTSRQILGRLREGNSAGKETSAKSEEKASTPAQRQQASLEEQNNDALSPAIRRLLAEHNLDASAIKGTGVGGRLTREDVEKHLAKAPAKESAPAAAAPAAQPALAARSEKRVPMTRLRKRVAERLLEAKNSTAMLTTFNEVNMKPIMDLRKQYGEAFEKRHGIRLGFMSFYVKAVVEALKRYPEVNASIDGDDVVYHNYFDVSMAVSTPRGLVTPVLRDVDTLGMADIEKKIKELAVKGRDGKLTVEDLTGGNFTITNGGVFGSLMSTPIINPPQSAILGMHAIKDRPMAVNGQVEILPMMYLALSYDHRLIDGRESVGFLVTIKELLEDPTRLLLDV

Source: PMC8196013
